Each structure is given as a SMILES string. The list shows a part of the results. Shown are side measurements of this screen, not its main read-out; they come without a call. Compounds called inactive in the main read-out are mostly missing here.

Sequences of proteins named here, by UniProt entry; tags and fusion partners are left off.
UniProt P21453, whole entry, looked up: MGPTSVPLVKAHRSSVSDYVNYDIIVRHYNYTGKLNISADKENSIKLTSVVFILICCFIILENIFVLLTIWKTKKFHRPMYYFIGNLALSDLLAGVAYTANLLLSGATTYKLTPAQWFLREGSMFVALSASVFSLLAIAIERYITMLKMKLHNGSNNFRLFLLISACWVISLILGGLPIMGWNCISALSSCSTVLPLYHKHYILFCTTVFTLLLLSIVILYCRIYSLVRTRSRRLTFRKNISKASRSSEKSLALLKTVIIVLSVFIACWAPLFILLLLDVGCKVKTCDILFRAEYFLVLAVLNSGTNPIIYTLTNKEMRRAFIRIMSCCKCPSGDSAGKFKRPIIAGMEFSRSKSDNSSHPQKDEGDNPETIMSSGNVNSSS

The experiment concerns the target Sphingosine 1-phosphate receptor 1 (Homo sapiens) (UniProt P21453). Briefly: S1P1 agonists and agonism potentiators, primary screen, cell-based, primary and confirmation screens, CRE-bla reporter (AID 449).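 Also: forskolin at 4 µM as EC80 and the EC20 agonist is SEW2871; 100% = SEW2871 at its EC100 plus forskolin at EC80.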 Conditions: S1P1 CRE-bla cells, forskolin, beta-lactamase FRET, potentiator mode; measured here: confirmation screen, triplicate average; at 9.5 µM; stronger effect = higher value; 100% = saturating reference agonist, 0% = basal; S1P1 agonist co-added at EC20, 2 nM.
For `CC(C)Oc1cc(O)c2c(=O)c(-c3ccc(O)cc3)coc2c1`, the activation amounted to 88.2%. Consider `O=C(Nc1cccc(C(F)(F)F)c1)C1CCCN1S(=O)(=O)c1cccc2cccnc12` (stereo unspecified), for which the activation is 65.6%. In the case of `Clc1ccc(OCCN2CCN(c3ncnc4sccc34)CC2)cc1`, the activation is 115%.

`Cc1ccc(-c2nnc(SCc3ccccc3F)o2)cc1`: the activation is 89%. On to `C=CS(=O)(=O)c1ccc(Oc2ccc(S(=O)(=O)C=C)cc2)cc1`, for which the activation came to 122%.

With `O=C(Nc1ccc(Cl)cc1)N1CCC(c2nc(-c3ccc(F)cc3)no2)CC1`, the activation was determined as 82.5%. With `CC(C)Cn1c(N)c(C(=O)CSc2ccc3c(c2)OCCO3)c(=O)n(C)c1=O`, the activation was 119%.

`Cn1c(C(=O)N2CCCc3ccccc32)cc2sccc21`: the activation stood at 88.3%.

Take `CCc1ccc(S(=O)(=O)NCCc2csc(-c3ccccc3)n2)s1`: the activation was 110%. With `COc1ccc(CCNc2c(C)c(C)nc3ncnn23)cc1`, the activation was 104%. With `CCN(C(=O)C1CCCCC1)c1nnc(-c2cccnc2)s1`, the activation was 67%. Consider `Cc1ccc(Cl)cc1N1CCN(C(=O)C2CCN(c3nnc(-n4cccc4)s3)CC2)CC1`, for which the activation worked out at 55%. `O=C(CSc1nnc(Cc2csc(Nc3cccc(Cl)c3)n2)o1)N1CCc2ccccc21`: the activation was determined as 85.9%.

Take `CCC(C)c1ccc2oc(-c3ccc(NC(=O)c4ncn[nH]4)cc3)nc2c1` (stereo unspecified): the activation came out at 104%.

Take `Cc1oc(-c2ccccc2)nc1Cn1cccc1C1=NC(c2ccccc2)CO1` (stereo unspecified): the activation was 102%. To `CCCCn1nnnc1SCC(=O)c1ccc(C)c(C)c1` belongs 75.2%; to `CCOC(=O)c1ccc2nc(NC(=O)c3ccco3)sc2c1`, 59.8%.

With `CCCCOc1ccc(S(=O)(=O)Nc2cccnc2)cc1`, the activation was 93.7%.

In the case of `COc1ccccc1N/C(N)=N/c1nc(CSc2ccc(C)cc2)cc(=O)[nH]1`, the activation was 77.8%. With `O=C(Nc1ccc(C(F)(F)F)cc1)C1CCCN1S(=O)(=O)c1cccc2cccnc12` (stereo unspecified), the activation was 63.9%. Turning to `CCC(NC(=O)Nc1nnc(C(F)(F)F)s1)(C(F)(F)F)C(F)(F)F`, the activation was 117%. `OC(c1cccc(OCc2ccccc2)c1)c1nnc(-c2ccccc2)o1` (stereo unspecified): the activation was found to be 101%. Consider `CCC1CCCCN1C(=O)CSc1nnc(-c2c[nH]c3ccccc23)o1` (stereo unspecified), for which the activation was 61%. Regarding `Brc1ccc2ncnc(Nc3ccc(N4CCOCC4)cc3)c2c1`, the activation is 61.1%.

As to `Cc1cccc(OCCCCc2c(C)n[nH]c2C)c1C`, the activation was determined as 95.8%. Under `Cc1nnc2ccc(Oc3ccc(-c4ccccc4)cc3)nn12` stands 56.1%. Under `COCCN(C(=O)c1ccccc1)c1nnc(-c2cccnc2)s1` stands 78.1%; under `Cc1cc(C(=O)N2CCN(C(c3ccccc3)c3ccccc3)CC2)on1`, 67%. For `COc1ccccc1-c1nc(-c2cccc(C)c2)no1`, the activation stood at 92.3%. Take `Cc1ccc(OCCn2cc(/C(N)=N/O)c3ccccc32)cc1C`: the activation stood at 69.8%. In the case of `CCCC(=O)Nc1ccc(-c2nc3cc(C)c(C)cc3o2)cc1`, the activation is 79.6%. In the case of `CN1/C(=C/C(=O)c2nc(S(C)(=O)=O)ncc2Cl)C(C)(C)c2ccccc21`, the activation worked out at 75.4%. For `O=S1(=O)C=C(Sc2nnc(-c3ccccc3)o2)c2ccccc21`, the activation came out at 120%. As to `O=S(=O)(c1cccs1)N1CCN(CC(O)COc2cc(Cl)ccc2Cl)CC1` (stereo unspecified), the activation amounted to 96.9%.

On to `CCOc1ccc(-c2noc(-c3cccnc3)n2)cc1OC`, for which the activation stood at 98.1%. Take `CC(=O)N1C=CN(C(C)=O)C(c2cn(C)c3ccccc23)C1c1cn(C)c2ccccc12` (stereo unspecified): the activation is 59.9%. As to `Cc1ccc(-c2csc(N3CCC(NS(=O)(=O)c4ccc5c(c4)OCCO5)CC3)n2)cc1`, the activation turned out to be 115%. On to `CCOC(=O)CN1C(=O)C(C)(C)Oc2ccc(C(=O)Nc3ccccc3OC)cc21`, for which the activation was 59.5%.

Turning to `CC(=O)c1sc(NC(=O)C2(F)C(F)(F)C(F)(F)C(F)(F)C(F)(F)C2(F)F)nc1C`, the activation was determined as 88.4%. Regarding `CC1CCc2nc(NC(=O)CSc3nc4ccccc4o3)sc2C1` (stereo unspecified), the activation worked out at 105%. To `Cc1cccc(-c2nc(C#N)c(NC3CCCCC3)o2)c1` belongs 71.6%; to `CC1Cc2ccccc2N1c1ncnc2nc[nH]c12` (stereo unspecified), 82.1%; to `Cc1ccc(-n2c(C)cc(C(=O)CSc3nnnn3C)c2C)cc1`, 67.2%. For `Clc1ccccc1C1=Nn2c(nnc2-c2ccncc2)SC1`, the activation stood at 83%. Under `Cc1ccc(OCc2nc(-c3ccccc3)no2)c(C)c1` stands 82.4%; under `CC(=O)Oc1ccc(N2C(=O)C3C(C2=O)C2(C)C=CC3(C)O2)cc1` (stereo unspecified), 86%; under `O=C(C1CCC1)N1CCc2cc(S(=O)(=O)Nc3ccc4c(c3)OCCO4)ccc21`, 85.1%. For the compound `N#Cc1ccc(NC(=O)Nc2ccc(Cl)cc2)cc1`, the activation was 118%.

As to `c1ccc(-c2ccc(-c3nc(-c4ccncc4)no3)cc2)cc1`, the activation came out at 95.1%. `COc1ccc2ncn(-c3ccccc3)c2c1`: the activation is 55.1%. As to `CC(=O)Nc1cc(OC(C)=O)c2nonc2c1OC(C)=O`, the activation amounted to 102%. To `COc1ccccc1-c1nc(-c2ccc(Br)cc2)no1` belongs 89.7%. Regarding `Cc1cc(C(=O)CSc2nnc(-c3cccnc3)n2-c2ccccc2F)c(C)n1C`, the activation is 101%. Turning to `O=C(Nc1ncc(Br)s1)C(Cc1ccccc1)n1cccc1` (stereo unspecified), the activation is 92.3%.

As to `CCOC(=O)c1cnc(-n2nc(C)cc2C)nc1NC1CCCCC1`, the activation stood at 114%.

Regarding `O=S1(=O)C=C(Sc2nc3cc(Cl)ccc3o2)c2ccccc21`, the activation was 117%. Turning to `CNc1oc(-c2ccc(OCc3ccccc3)cc2)nc1C#N`, the activation was found to be 82.9%.

On to `Cc1ccc2nc(C(F)(F)F)c(C#N)c(N)c2c1`, for which the activation came to 62.3%. Take `Clc1ccc(CSc2nnc(-c3ccncc3)o2)c(Cl)c1`: the activation is 80.4%.

Consider `O=C(c1cc(-c2ccco2)on1)N1CCN(C(c2ccccc2)c2ccccc2)CC1`, for which the activation stood at 68.7%.

On to `Cc1ccc(C(=O)Nc2nc(COc3ccccc3)cs2)s1`, for which the activation stood at 73.2%.

As to `COc1ccc(Cc2nc(-c3ccc(-n4cccc4)cc3)no2)cc1OC`, the activation was 68.5%.

Regarding `CC(=O)c1ccc(NC(=O)N2CCN(c3cccc(Cl)c3)CC2)cc1`, the activation was found to be 75.1%. Under `Cc1cc(C(=O)CSc2nnnn2-c2ccc(O)cc2)c(C)n1Cc1ccc2c(c1)OCO2` stands 87.5%; under `CCc1ccc(NC(=O)c2cc(-c3ccco3)on2)cc1`, 71.2%. As for `Cc1ccc(C(C)C)c(OCc2nc(-c3nonc3N)no2)c1`, the activation is 78.7%. Turning to `N/C(=N\c1nc2c(c(=O)[nH]1)CCCC2)Nc1ccccc1`, the activation was 57%. Turning to `Cn1c(-c2c(N)n(C3CCCC3)c3nc4ccccc4nc23)nc2ccccc21`, the activation turned out to be 86.5%. Under `c1csc(CCNc2ncnc3sc4c(c23)CCC4)c1` stands 117%; under `O=C(CSc1nnc(Cn2nnc3ccccc32)o1)N(Cc1ccc(F)cc1)c1ccccc1`, 89.2%; under `CCc1c(C)sc(NC(=O)c2cc(-c3ccco3)on2)c1C#N`, 80.4%. Regarding `COc1cccc(-c2nnc3sc(C4CCCCC4)nn23)c1`, the activation was 91.4%. On to `COc1cccc2sc(Nc3nc(-c4ccccn4)cs3)nc12`, for which the activation is 82.5%. As for `c1ccc(CN2CCN(c3ncnc4c3[nH]c3ccccc34)CC2)cc1`, the activation was 62.3%.

For the compound `CCOC(=O)CN(C(=O)CSc1nnc(-c2cccc(OC)c2)o1)c1ccc(F)cc1`, the activation was 65.9%. `CCCCOc1ncnc2c1[nH]c1ccc(F)cc12`: the activation came to 99%. On to `CCN(CC)C(=O)C1CCN(S(=O)(=O)c2ccc3oc4ccccc4c3c2)CC1`, for which the activation came out at 85.9%.

Regarding `Cc1cc2nc(-c3ccc(NC(=O)C(C)C)cc3)oc2cc1C`, the activation is 97.3%. As to `Cc1cc(N2CCOCC2)nc(NCc2ccccc2)n1`, the activation turned out to be 68.9%. To `Oc1ccc(-c2nnc(SCC3CCCCC3)o2)cc1` belongs 106%.

On to `O=C(Nc1cccc(C(F)(F)F)c1)N1CCC(c2nc(-c3ccc(F)cc3)no2)CC1`, for which the activation was determined as 80.6%.

`Cc1ccc2[nH]c3c(NCc4ccco4)ncnc3c2c1`: the activation stood at 85.3%. Under `CC(C)[C@H](NC(=O)OC(C)(C)C)c1nnc(SCC(=O)Nc2ccc(Br)cc2)o1` stands 61.2%.

As to `CCOc1nc(C)ccc1-c1noc(-c2ccncc2)n1`, the activation is 58.3%. Regarding `Clc1ccc(CCNc2ncnc3nc[nH]c23)cc1`, the activation was determined as 89.1%.

With `CCOc1ccc(C(=O)Nc2c(C(N)=O)oc3ccccc23)cc1`, the activation was 58.6%. Under `COCCn1c(C)cc(C(=O)CSc2nnc(-c3cccnc3)n2-c2ccccc2F)c1C` stands 86.9%; under `CC(C)c1cc(C(F)(F)F)n2nc(C(=O)Nc3ccc4c(c3)OCO4)cc2n1`, 94.7%; under `OC1(c2cccc(C(F)(F)F)c2)CCN(c2ncnc3c2[nH]c2ccc(F)cc23)CC1`, 104%. With `CCOc1ccc(-c2nc(-c3ccccc3C)no2)cc1`, the activation was found to be 104%. Consider `O=C(Nc1ccc(S(=O)(=O)NCc2ccco2)cc1)c1ccc2ccccc2n1`, for which the activation stood at 70.1%.

On to `O=C(NCc1ccccc1)N1CCN(c2ccc(Cl)c(Cl)c2)CC1`, for which the activation stood at 111%. To `Cc1ccc(C(C)C)c(OCc2ccc(-c3nnco3)cc2)c1` belongs 96%; to `Fc1ccccc1COc1ccc(/C=N/n2cnnc2)cc1`, 86.8%. Under `CN=C(NC#N)SCC(=O)c1ccc(Cl)cc1Cl` stands 65.6%. In the case of `CC1=C(C(=O)OCc2ccc3c(c2)OCO3)C(c2ccccc2)NC(=O)N1` (stereo unspecified), the activation was 83.9%.

With `Cc1ccc(NC(=O)c2cc(-c3ccco3)on2)cc1C`, the activation was determined as 59.6%. Take `CC1=C(C(=O)OCc2ccc3c(c2)OCO3)C(c2ccc(Cl)cc2)NC(=O)N1` (stereo unspecified): the activation is 103%. Turning to `COC(=O)CS(=O)(=O)c1nnc([C@H](Cc2ccccc2)NC(=O)OC(C)(C)C)o1`, the activation stood at 85.5%.

For the compound `O=C(CCc1nc(-c2ccccc2F)no1)Nc1ccc(Oc2ccccc2)cc1`, the activation was found to be 116%. Regarding `CCN=c1scc(-c2ccc3c(c2)NC(=O)CO3)n1N=C1CCCC1`, the activation came out at 75%.

In the case of `CCOc1ccc(-c2nnc(-c3cccs3)o2)cc1OCC`, the activation was found to be 102%.

For the compound `Cc1nn(Cc2ccc(Cl)c(Cl)c2)c(C)c1NC(=O)c1cc(CC(C)C)on1`, the activation turned out to be 90.3%. As for `Cc1cc(C(=O)CSc2nnnn2C)c(C)n1-c1cccc(F)c1`, the activation stood at 93.9%. Under `CC(C)c1cc(C(=O)N2CCN(C(c3ccccc3)c3ccccc3)CC2)no1` stands 70.8%; under `O=S(=O)(Nc1ccc2c(c1)OCCO2)c1ccc2oc3ccccc3c2c1`, 74.2%. In the case of `Cc1cccc(-n2ncc3c(N(C)C4CCCCC4)ncnc32)c1`, the activation was found to be 65.2%.

For `COc1ccccc1Oc1ccc2c(c1)C(=O)N(c1cccc(O)c1)C2=O`, the activation amounted to 93%.

As to `O=C(Nc1nc(-c2nc3ccccc3s2)cs1)c1ccc(S(=O)(=O)N2CCOCC2)cc1`, the activation was found to be 111%. Take `O=C(Nc1ccc(N2CCCCC2)c(Cl)c1)c1ncn[nH]1`: the activation was 101%. On to `CCOc1ccc(-c2nc(-c3ccc(OC)cc3)no2)cc1OCC`, for which the activation is 105%.

These data come from PubChem BioAssay AID449 (The Scripps Research Institute Molecular Screening Center, 2006).
